According to the supplement of paper PMC10849652:
Some of the results follow. Residues, ends and D or L forms follow the SMILES beside them. *: point of attachment. Cbz = O=C(OCc1ccccc1)*

Amino acid sequences for entries named in this document (tags omitted). A change or cut given only in a name is not applied to a line headed by its entry.
UniProt P49711: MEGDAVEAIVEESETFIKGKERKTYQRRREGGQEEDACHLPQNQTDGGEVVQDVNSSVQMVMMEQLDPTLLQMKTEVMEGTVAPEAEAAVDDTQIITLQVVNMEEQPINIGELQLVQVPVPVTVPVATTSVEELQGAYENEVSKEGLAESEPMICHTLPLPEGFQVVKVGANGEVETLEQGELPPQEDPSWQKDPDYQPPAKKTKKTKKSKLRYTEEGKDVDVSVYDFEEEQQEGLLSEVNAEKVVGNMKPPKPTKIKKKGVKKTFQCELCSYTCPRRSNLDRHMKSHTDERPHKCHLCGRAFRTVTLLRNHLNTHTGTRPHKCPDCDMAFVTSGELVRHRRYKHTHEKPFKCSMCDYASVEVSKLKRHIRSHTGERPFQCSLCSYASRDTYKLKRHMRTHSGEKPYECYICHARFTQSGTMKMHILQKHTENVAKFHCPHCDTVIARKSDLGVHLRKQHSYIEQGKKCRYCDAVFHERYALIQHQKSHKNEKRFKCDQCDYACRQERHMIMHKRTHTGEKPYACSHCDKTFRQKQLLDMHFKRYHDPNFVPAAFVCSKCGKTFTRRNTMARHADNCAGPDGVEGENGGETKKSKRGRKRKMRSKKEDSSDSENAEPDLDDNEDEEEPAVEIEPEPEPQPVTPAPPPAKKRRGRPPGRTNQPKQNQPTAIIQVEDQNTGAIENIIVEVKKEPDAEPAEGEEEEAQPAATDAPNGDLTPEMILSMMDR
UniProt P14868: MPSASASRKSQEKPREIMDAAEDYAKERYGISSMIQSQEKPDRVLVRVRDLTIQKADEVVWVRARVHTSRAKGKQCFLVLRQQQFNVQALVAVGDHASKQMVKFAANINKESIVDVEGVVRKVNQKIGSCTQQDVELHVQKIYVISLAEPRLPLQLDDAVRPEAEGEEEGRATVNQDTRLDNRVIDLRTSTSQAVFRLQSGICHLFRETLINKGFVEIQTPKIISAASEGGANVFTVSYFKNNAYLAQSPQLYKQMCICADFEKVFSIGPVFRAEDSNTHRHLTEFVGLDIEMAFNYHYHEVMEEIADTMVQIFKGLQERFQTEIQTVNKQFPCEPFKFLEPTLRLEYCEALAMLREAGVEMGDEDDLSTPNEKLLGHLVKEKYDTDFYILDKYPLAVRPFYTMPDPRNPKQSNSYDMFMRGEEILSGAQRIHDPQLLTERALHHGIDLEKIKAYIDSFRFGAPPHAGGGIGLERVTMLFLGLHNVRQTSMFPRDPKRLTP
UniProt P00387: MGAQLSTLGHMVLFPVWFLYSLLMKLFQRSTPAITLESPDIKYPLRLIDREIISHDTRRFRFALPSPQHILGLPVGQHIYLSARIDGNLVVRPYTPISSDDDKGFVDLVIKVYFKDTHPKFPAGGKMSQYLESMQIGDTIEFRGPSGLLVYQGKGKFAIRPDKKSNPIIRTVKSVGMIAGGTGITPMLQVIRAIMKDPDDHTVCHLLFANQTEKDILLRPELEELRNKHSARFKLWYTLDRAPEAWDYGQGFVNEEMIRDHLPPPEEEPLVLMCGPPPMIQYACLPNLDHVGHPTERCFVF
UniProt Q9NRF8: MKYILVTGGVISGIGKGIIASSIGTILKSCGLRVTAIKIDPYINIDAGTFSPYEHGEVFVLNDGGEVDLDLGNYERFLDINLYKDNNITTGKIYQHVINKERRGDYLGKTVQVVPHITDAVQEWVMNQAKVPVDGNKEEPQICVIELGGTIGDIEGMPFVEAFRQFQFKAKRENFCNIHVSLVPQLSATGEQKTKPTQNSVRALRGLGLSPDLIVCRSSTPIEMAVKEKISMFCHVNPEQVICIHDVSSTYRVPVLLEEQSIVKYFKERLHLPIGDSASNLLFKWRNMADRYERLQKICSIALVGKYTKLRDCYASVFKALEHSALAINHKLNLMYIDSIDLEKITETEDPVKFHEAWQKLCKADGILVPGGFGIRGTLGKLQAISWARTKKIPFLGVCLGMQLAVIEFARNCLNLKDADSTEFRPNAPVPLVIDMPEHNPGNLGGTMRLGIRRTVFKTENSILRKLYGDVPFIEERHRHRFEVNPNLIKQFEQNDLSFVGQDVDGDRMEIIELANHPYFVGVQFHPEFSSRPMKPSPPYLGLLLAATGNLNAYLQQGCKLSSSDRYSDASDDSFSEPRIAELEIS
UniProt Q13618, whole entry, looked up: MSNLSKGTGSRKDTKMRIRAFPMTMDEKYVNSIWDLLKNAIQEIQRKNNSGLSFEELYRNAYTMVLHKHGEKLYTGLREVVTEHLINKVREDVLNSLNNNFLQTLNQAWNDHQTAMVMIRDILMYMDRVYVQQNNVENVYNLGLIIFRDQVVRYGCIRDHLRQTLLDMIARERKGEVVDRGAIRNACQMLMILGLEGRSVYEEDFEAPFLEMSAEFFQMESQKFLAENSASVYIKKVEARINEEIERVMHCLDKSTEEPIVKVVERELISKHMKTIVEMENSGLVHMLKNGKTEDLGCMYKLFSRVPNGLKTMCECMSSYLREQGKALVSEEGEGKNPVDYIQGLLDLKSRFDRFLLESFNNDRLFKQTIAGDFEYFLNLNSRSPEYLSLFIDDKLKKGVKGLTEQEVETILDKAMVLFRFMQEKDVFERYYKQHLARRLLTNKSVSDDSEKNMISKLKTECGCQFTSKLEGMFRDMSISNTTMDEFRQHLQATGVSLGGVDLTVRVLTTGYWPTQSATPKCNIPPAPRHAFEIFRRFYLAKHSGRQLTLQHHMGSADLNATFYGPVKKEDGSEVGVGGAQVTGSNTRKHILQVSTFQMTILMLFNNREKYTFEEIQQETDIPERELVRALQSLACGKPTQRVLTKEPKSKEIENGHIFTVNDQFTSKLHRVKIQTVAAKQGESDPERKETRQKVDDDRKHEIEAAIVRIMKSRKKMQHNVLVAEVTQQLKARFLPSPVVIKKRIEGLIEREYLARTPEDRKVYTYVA
UniProt Q9Y4B6: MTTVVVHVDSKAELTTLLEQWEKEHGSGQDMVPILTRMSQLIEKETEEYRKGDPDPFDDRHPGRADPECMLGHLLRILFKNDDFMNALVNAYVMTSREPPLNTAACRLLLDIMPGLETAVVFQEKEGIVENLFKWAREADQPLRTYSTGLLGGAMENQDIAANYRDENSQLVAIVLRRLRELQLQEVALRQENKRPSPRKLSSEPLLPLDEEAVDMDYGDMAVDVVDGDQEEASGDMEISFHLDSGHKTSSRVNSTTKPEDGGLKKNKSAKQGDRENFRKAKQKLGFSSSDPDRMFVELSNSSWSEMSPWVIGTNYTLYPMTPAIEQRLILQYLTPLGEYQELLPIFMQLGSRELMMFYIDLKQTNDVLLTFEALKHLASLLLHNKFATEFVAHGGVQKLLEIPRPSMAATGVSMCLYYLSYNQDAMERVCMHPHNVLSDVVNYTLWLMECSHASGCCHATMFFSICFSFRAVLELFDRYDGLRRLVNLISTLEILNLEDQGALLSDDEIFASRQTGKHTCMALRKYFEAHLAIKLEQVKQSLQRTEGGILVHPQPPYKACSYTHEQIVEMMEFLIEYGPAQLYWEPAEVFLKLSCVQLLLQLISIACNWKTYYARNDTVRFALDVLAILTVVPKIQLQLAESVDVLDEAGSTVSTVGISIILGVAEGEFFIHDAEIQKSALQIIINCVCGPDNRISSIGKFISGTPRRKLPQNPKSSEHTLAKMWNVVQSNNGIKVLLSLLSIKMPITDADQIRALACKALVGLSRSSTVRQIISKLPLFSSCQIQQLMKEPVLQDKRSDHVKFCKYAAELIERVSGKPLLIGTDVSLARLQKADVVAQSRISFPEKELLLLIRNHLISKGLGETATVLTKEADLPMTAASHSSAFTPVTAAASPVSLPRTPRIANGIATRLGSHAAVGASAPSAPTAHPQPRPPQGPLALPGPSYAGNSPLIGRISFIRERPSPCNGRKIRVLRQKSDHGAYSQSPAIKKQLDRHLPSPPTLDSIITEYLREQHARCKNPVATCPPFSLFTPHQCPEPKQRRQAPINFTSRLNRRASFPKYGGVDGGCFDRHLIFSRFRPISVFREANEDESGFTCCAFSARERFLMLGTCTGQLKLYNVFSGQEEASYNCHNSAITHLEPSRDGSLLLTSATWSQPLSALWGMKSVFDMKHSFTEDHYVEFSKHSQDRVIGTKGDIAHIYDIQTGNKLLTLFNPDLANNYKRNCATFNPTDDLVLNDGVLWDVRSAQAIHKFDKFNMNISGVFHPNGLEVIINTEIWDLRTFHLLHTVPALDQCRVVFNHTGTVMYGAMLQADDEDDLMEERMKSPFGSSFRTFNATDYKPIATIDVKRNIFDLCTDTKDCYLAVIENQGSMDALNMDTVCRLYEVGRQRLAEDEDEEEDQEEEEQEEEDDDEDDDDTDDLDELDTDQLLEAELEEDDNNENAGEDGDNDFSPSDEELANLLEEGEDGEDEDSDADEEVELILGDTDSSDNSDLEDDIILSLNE
UniProt Q9UHQ9: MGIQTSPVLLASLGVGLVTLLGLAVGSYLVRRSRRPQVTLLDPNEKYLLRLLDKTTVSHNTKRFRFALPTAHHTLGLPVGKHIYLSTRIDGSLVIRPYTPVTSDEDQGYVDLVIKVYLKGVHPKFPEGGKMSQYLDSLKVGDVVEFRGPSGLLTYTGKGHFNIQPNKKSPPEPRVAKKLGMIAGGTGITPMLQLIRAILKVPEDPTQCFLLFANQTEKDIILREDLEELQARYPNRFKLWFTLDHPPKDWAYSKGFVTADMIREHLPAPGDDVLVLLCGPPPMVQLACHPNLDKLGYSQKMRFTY
UniProt Q9UJW0, whole entry, looked up: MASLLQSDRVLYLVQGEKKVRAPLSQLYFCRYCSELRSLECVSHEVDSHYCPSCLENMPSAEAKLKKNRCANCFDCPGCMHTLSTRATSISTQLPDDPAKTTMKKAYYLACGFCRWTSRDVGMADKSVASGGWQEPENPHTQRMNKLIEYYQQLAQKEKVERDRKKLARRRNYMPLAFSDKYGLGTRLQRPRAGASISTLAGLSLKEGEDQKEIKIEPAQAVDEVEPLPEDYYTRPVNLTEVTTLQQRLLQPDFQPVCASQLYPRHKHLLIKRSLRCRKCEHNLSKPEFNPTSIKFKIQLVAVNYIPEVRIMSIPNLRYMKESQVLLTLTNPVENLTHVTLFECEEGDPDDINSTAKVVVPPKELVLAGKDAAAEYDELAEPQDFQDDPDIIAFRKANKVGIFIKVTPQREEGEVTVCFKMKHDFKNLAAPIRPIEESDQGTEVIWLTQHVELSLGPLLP
UniProt Q5TAQ9: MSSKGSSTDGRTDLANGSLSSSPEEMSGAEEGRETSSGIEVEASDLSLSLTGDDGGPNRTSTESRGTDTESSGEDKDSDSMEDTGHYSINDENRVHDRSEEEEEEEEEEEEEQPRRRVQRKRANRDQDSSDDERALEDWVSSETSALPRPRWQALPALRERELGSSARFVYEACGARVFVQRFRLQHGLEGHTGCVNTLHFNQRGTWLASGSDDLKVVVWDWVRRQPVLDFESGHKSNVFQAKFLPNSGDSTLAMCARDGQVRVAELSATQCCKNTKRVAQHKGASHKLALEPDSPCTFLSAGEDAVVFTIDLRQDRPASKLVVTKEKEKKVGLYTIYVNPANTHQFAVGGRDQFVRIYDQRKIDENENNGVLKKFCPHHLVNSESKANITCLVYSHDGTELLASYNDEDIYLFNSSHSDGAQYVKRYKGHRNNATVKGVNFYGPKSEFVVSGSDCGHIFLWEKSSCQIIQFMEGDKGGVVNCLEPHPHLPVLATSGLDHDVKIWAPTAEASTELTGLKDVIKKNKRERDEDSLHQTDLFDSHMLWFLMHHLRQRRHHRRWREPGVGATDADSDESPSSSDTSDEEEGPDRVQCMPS
UniProt Q93034, whole entry, looked up: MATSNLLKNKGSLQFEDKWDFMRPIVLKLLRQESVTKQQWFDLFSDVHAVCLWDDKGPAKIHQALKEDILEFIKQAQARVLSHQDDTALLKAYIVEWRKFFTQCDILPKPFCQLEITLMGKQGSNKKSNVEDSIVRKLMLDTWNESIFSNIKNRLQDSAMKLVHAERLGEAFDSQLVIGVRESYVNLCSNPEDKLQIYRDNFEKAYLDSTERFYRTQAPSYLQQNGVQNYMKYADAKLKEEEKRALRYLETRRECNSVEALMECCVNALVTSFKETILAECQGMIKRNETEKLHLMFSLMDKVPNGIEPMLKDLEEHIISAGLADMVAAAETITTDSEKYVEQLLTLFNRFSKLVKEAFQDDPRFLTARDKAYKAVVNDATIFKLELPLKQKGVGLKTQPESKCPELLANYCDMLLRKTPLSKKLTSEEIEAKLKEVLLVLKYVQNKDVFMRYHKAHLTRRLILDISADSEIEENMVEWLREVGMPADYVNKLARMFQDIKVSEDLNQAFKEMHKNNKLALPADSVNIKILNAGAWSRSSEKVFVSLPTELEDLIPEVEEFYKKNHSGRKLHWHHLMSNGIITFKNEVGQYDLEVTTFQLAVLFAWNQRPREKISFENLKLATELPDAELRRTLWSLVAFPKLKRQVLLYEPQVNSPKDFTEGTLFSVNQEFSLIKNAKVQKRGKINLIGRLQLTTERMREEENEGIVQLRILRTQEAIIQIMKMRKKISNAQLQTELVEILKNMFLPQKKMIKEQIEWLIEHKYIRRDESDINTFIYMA

Key:
Test in all cases: log2 fold change, soluble protein after heating vs DMSO (PISA); higher = thermal stabilisation; K562 cells, 10 uM, 30 min; active = over 0.2 and 3.5 SD of the protein, either way, in both replicates (recomputed)
IRAK-1-4 Inhibitor I = compound: C1COCCN1CCN2C3=CC=CC=C3N=C2NC(=O)C4=CC(=CC=C4)[N+](=O)[O-] [IRAK-1-4 Inhibitor I]
Summary of the method: (§1)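 Soluble protein was defined as the supernatant after 21,000xg for 90 min. It came from K562 cells at 2×10^6 cells/mL given 10 μM compound for 30 min, heated in aliquots for 3 min across 48°C-58°C, pooled, and extracted in PBS with 0.5% NP-40 at 4°C, and was quantified by TMTpro 16plex LC-MS/MS with equalised channel sums. Thermal stability against control samples, from duplicates, is reported as log2 fold change.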

ibrutinib = compound: C=CC(=O)N1CCC[C@@H](n2nc(-c3ccc(Oc4ccccc4)cc3)c3c(N)ncnc32)C1 [ibrutinib]
Summary of the method: as §1

[1] = compound: CC(=O)c1cnc2ccc(-c3cc(Cl)c(O)c(Cl)c3)nc2c1N[C@H]1CC[C@H](CN(C)C)CC1
Summary of the method: as §1

ralimetinib = compound: CC(C)(C)Cn1c(N)nc2ccc(-c3[nH]c(C(C)(C)C)nc3-c3ccc(F)cc3)nc21 [ralimetinib]
Summary of the method: as §1

[2] = compound: CC(C)(O)CC(=O)NCCn1ccc2ncnc(Nc3ccc(Oc4cccc(C(F)(F)F)c4)c(Cl)c3)c21
Summary of the method: as §1

[3] = compound: CC(C)C1=C2N=C(C=C(N2N=C1)NCC3=CC=CC=C3)NCCCCCCN
Summary of the method: as §1

[4] = compound: CC(C)C[C@@H](C=O)NC(=O)[C@H](CC(C)C)NC(=O)[C@H](CC(C)C)NC(=O)OCc1ccccc1
Summary of the method: as §1

pinometostat = compound: CC(C)N(C[C@H]1O[C@@H](n2cnc3c(N)ncnc32)[C@H](O)[C@@H]1O)[C@H]1C[C@@H](CCc2nc3cc(C(C)(C)C)ccc3[nH]2)C1 [pinometostat]
Summary of the method: as §1

[5] = compound: CC1=C(C(CC(=O)N1)C2=CC=C(C=C2)C(F)(F)F)C(=O)NC3=C(C=C4C(=C3)C=NN4)F
Summary of the method: as §1

[6] = compound: CC1=C(C2=C(C=C1)C(=O)C3=CC=CC=C3N2CCCN)C
Summary of the method: as §1

[7] = compound: CC1=C(C=C(C=C1)NC(=O)C2=CC(=CC=C2)C(C)(C)C#N)NC3=CC4=C(C=C3)N=CN(C4=O)C
Summary of the method: as §1

[8] = compound: CC1=C(C=C(C=C1)NC(=O)C2=CC(=CC=C2)N(C)C)NC(=O)C3=CC=C(C=C3)O
Summary of the method: as §1

[9] = compound: CC1=CC=C(C=C1)SC2=C3C=C(SC3=CN=C2)C(=O)N
Summary of the method: as §1

[10] = compound: CC1=NC(=CC=C1)C2=C(N=C(N2)C(C)(C)C)C3=CC4=NC=CN=C4C=C3
Summary of the method: as §1

Nexturastat A = compound: CCCCN(Cc1ccc(C(=O)NO)cc1)C(=O)Nc1ccccc1 [Nexturastat A]
Summary of the method: as §1

vemurafenib = compound: CCCS(=O)(=O)Nc1ccc(F)c(C(=O)c2c[nH]c3ncc(-c4ccc(Cl)cc4)cc23)c1F [vemurafenib]
Summary of the method: as §1

[11] = compound: CCCS(=O)(=O)Nc1ccc(F)c(C(=O)c2c[nH]c3ncc(Cl)cc23)c1F
Summary of the method: as §1

[12] = compound: CCCc1cc(C)[nH]c(=O)c1CNC(=O)c1cc(-c2ccnc(N3CCN(C)CC3)c2)cc2c1cnn2C(C)C
Summary of the method: as §1

givinostat = compound: CCN(CC)Cc1ccc2cc(COC(=O)Nc3ccc(C(=O)NO)cc3)ccc2c1 [givinostat]
Summary of the method: as §1

barasertib = compound: CCN(CCCOc1ccc2c(Nc3cc(CC(=O)Nc4cccc(F)c4)[nH]n3)ncnc2c1)CCOP(=O)(O)O [barasertib]
Summary of the method: as §1

Measured: log2 fold change

CTCF (UniProt P49711)
inactive: IRAK-1-4 Inhibitor I -0.123 | ibrutinib 0.005 | [1] 0.092 | ralimetinib 0.142 | [2] 0.057 | [3] 0.087 | [4] 0.054 | pinometostat 0.204 | [5] 0.014 | [6] 0.584 | [7] -0.003 | [8] -0.018 | [9] -0.041 | [10] -0.133 | Nexturastat A 0.066 | vemurafenib -0.092 | [11] -0.039 | [12] 0.115 | givinostat -0.051 | barasertib -0.101

DARS (UniProt P14868)
inactive: IRAK-1-4 Inhibitor I -0.005 | ibrutinib 0.035 | [1] 0.04 | ralimetinib 0.016 | [2] 0.038 | [3] 0.046 | [4] 0.026 | pinometostat 0.066 | [5] 0.024 | [6] -0.015 | [7] -0.051 | [8] 0.008 | [9] -0.025 | [10] -0.033 | Nexturastat A 0.052 | vemurafenib -0.026 | [11] -0.031 | [12] -0.008 | givinostat -0.001 | barasertib -0.002

CYB5R3 isoform 3 (UniProt P00387)
inactive: IRAK-1-4 Inhibitor I 0.016 | ibrutinib 0.011 | [1] -0.014 | ralimetinib -0.07 | [2] 0.007 | [3] 0.035 | [4] -0.008 | pinometostat -0.009 | [5] 0.018 | [6] -0.008 | [7] -0.012 | [8] -0.003 | [9] -0.001 | [10] 0.015 | Nexturastat A -0.047 | vemurafenib -0.038 | [11] -0.026 | [12] -0.021 | givinostat 0.003 | barasertib -0.019

CTPS2 (UniProt Q9NRF8)
inactive: IRAK-1-4 Inhibitor I 0.004 | ibrutinib 0.011 | [1] 0.02 | ralimetinib -0.026 | [2] -0.011 | [3] 0.067 | [4] -0.038 | pinometostat -0.056 | [5] 0.036 | [6] 0.019 | [7] 0.007 | [8] 0.031 | [9] 0.042 | [10] 0.014 | Nexturastat A -0.098 | vemurafenib -0.016 | [11] 0.02 | [12] -0.042 | givinostat -0.009 | barasertib -0.026

CUL3 (UniProt Q13618)
inactive: IRAK-1-4 Inhibitor I 0.051 | ibrutinib -0.006 | [1] -0.022 | ralimetinib -0.035 | [2] -0.018 | [3] 0.025 | [4] -0.054 | pinometostat -0.026 | [5] 0.016 | [6] 0.011 | [7] 0.007 | [8] 0 | [9] -0.001 | [10] 0.027 | Nexturastat A -0.062 | vemurafenib 0.01 | [11] 0.036 | [12] -0.019 | givinostat -0.01 | barasertib 0.012

DCAF1 (UniProt Q9Y4B6)
inactive: IRAK-1-4 Inhibitor I 0.001 | ibrutinib 0.002 | [1] -0.017 | ralimetinib -0.063 | [2] -0.059 | [3] -0.089 | [4] 0.01 | pinometostat 0.003 | [5] -0.023 | [6] -0.19 | [7] 0.012 | [8] 0 | [9] -0.003 | [10] 0.057 | Nexturastat A -0.007 | vemurafenib -0.001 | [11] 0.025 | [12] -0.023 | givinostat 0.012 | barasertib 0.003

CTNNA1 isoform 2 (UniProt P35221)
inactive: IRAK-1-4 Inhibitor I 0.062 | ibrutinib 0.014 | [1] -0.039 | ralimetinib 0.029 | [2] -0.05 | [3] 0.046 | [4] 0.045 | pinometostat 0.016 | [5] 0.047 | [6] -0.027 | [7] -0.012 | [8] -0.009 | [9] -0.025 | [10] -0.001 | Nexturastat A 0.035 | vemurafenib 0.021 | [11] -0.013 | [12] -0.075 | givinostat 0.008 | barasertib 0.01

CT45A10 (UniProt P0DMU9)
inactive: IRAK-1-4 Inhibitor I -0.091 | ibrutinib 0 | [1] 0.103 | ralimetinib 0.01 | [2] 0.101 | [3] 0.025 | [4] 0.156 | pinometostat 0.193 | [5] 0.064 | [6] -0.025 | [7] -0.017 | [8] 0.021 | [9] -0.263 | [10] -0.07 | Nexturastat A 0.256 | vemurafenib 0.04 | [11] -0.091 | [12] 0.071 | givinostat 0.039 | barasertib -0.072

CXorf38 (UniProt Q8TB03)
inactive: IRAK-1-4 Inhibitor I 0.027 | ibrutinib -0.037 | [1] -0.037 | ralimetinib -0.044 | [2] -0.053 | [3] -0.01 | [4] 0.012 | pinometostat 0.008 | [5] -0.008 | [6] 0.024 | [7] 0.037 | [8] -0.055 | [9] -0.018 | [10] -0.045 | Nexturastat A 0.001 | vemurafenib -0.008 | [11] 0.011 | [12] 0.009 | givinostat -0.091 | barasertib 0.036

CSPP1 (UniProt Q1MSJ5)
inactive: IRAK-1-4 Inhibitor I 0.052 | ibrutinib 0.014 | [1] -0.12 | ralimetinib -0.146 | [2] 0.012 | [3] -0.03 | [4] 0.133 | pinometostat 0.086 | [5] 0.049 | [6] 0.035 | [7] -0.009 | [8] -0.03 | [9] 0.018 | [10] -0.02 | Nexturastat A 0.014 | vemurafenib -0.024 | [11] -0.067 | [12] -0.071 | givinostat -0.021 | barasertib -0.008

CYB5R1 (UniProt Q9UHQ9)
inactive: IRAK-1-4 Inhibitor I 0.025 | ibrutinib -0.016 | [1] -0.019 | ralimetinib -0.106 | [2] 0.003 | [3] 0.002 | [4] -0.015 | pinometostat -0.053 | [5] 0.017 | [6] 0.024 | [7] -0.026 | [8] 0.003 | [9] 0.021 | [10] 0.008 | Nexturastat A -0.037 | vemurafenib -0.03 | [11] 0.01 | [12] -0.025 | givinostat 0.001 | barasertib 0.007

CYP20A1 (UniProt Q6UW02)
inactive: IRAK-1-4 Inhibitor I 0.031 | ibrutinib -0.066 | [1] 0 | ralimetinib -0.047 | [2] -0.081 | [3] -0.047 | [4] -0.053 | pinometostat 0.047 | [5] -0.012 | [6] 0.02 | [7] 0.004 | [8] 0.026 | [9] 0.011 | [10] 0.015 | Nexturastat A -0.118 | vemurafenib 0.017 | [11] 0.006 | [12] -0.023 | givinostat 0.057 | barasertib 0.005

Looked up one by one from the entries so far (2):
CSPP1 (UniProt Q1MSJ5)
inactive: IRAK-1-4 Inhibitor I 0.052 | ibrutinib 0.014 | [1] -0.12 | ralimetinib -0.146 | [2] 0.012 | [3] -0.03 | [4] 0.133 | pinometostat 0.086 | [5] 0.049 | [6] 0.035 | [7] -0.009 | [8] -0.03 | [9] 0.018 | [10] -0.02 | Nexturastat A 0.014 | vemurafenib -0.024 | [11] -0.067 | [12] -0.071 | givinostat -0.021 | barasertib -0.008

CT45A10 (UniProt P0DMU9)
inactive: IRAK-1-4 Inhibitor I -0.091 | ibrutinib 0 | [1] 0.103 | ralimetinib 0.01 | [2] 0.101 | [3] 0.025 | [4] 0.156 | pinometostat 0.193 | [5] 0.064 | [6] -0.025 | [7] -0.017 | [8] 0.021 | [9] -0.263 | [10] -0.07 | Nexturastat A 0.256 | vemurafenib 0.04 | [11] -0.091 | [12] 0.071 | givinostat 0.039 | barasertib -0.072

(next part)

DCTN4 (UniProt Q9UJW0)
inactive: IRAK-1-4 Inhibitor I 0.015 | ibrutinib -0.006 | [1] 0.03 | ralimetinib 0.004 | [2] 0.032 | [3] 0.08 | [4] 0.049 | pinometostat -0.002 | [5] 0.019 | [6] 0.007 | [7] -0.057 | [8] -0.033 | [9] -0.033 | [10] -0.004 | Nexturastat A 0.028 | vemurafenib -0.016 | [11] -0.012 | [12] -0.024 | givinostat 0.003 | barasertib 0.016

DCAF8 (UniProt Q5TAQ9)
inactive: IRAK-1-4 Inhibitor I -0.032 | ibrutinib -0.005 | [1] -0.024 | ralimetinib 0.044 | [2] 0.068 | [3] -0.023 | [4] 0.005 | pinometostat 0.047 | [5] 0.057 | [6] -0.125 | [7] -0.076 | [8] -0.018 | [9] 0.051 | [10] 0.013 | Nexturastat A 0.082 | vemurafenib -0.065 | [11] 0.026 | [12] 0.014 | givinostat -0.053 | barasertib 0.042

DAP3 (UniProt P51398)
inactive: IRAK-1-4 Inhibitor I -0.071 | ibrutinib 0.065 | [1] 0.007 | ralimetinib 0.009 | [2] -0.054 | [3] -0.044 | [4] 0.075 | pinometostat 0.028 | [5] 0.023 | [6] -0.144 | [7] -0.002 | [8] -0.027 | [9] 0.016 | [10] -0.022 | Nexturastat A 0.128 | vemurafenib 0.007 | [11] 0.041 | [12] 0.02 | givinostat 0.084 | barasertib -0.054

CUL5 (UniProt Q93034)
inactive: IRAK-1-4 Inhibitor I 0.017 | ibrutinib -0.002 | [1] -0.013 | ralimetinib -0.037 | [2] -0.054 | [3] 0.054 | [4] -0.018 | pinometostat -0.05 | [5] 0.003 | [6] 0.007 | [7] -0.005 | [8] 0 | [9] 0.017 | [10] -0.007 | Nexturastat A -0.089 | vemurafenib -0.008 | [11] 0.008 | [12] -0.025 | givinostat 0.002 | barasertib -0.004
